Assay results: patent US12655385B2, “Cell culture compositions with antioxidants and methods for polypeptide production” (Genentech, Inc., priority 2013, dated 2026)
Some entries repeat one wording, which the source may state once for all of them.

The compounds below were run on IgG1 monoclonal antibody (assay: Antioxidant screening: incubation of Media 1/Media 2 mixture spiked with antibody, color intensity of purified antibody). Conditions: 1X test concentration in Media 1 + Media 2 mixture, 2 g/L IgG1 mAb, 5 days 37° C. 250 rpm; normalized to positive control (FIG. 1, FIG. 2).
Experimental: For antioxidant screening, a total volume of 40 ml media was prepared by mixing 1 part basal Media 1 and 0.3 part feed Media 2 to mirror a representative ratio of media used in cell culture conditions (Table 5). […] The samples were incubated at 37° C. with shaking at 250 rpm for a five day incubation period.
After incubation, the monoclonal antibody was purified using affinity chromatography. Color intensity of the concentrated antibody composition was measured in the purified pool using an assay wherein higher numerical values indicate higher color intensity and lower numerical values indicate lower color intensity. The numerical results were normalized to the positive control, where the value for the positive control was set at 0% change in color intensity.

| SMILES | color of the antibody composition (direction of change) |
| --- | --- |
| O=C([O-])c1cc(O)ccc1O.[Na+] [gentisic acid, sodium 2,5-dihydroxybenzoate] | increase the color of the antibody composition |
| Cn1cncc1C[C@H](NC(=O)CCN)C(=O)O.O=[N+]([O-])O [anserine, (2S)-2-(3-aminopropanamido)-3-(1-methyl-1H-imidazol-5-yl)propanoic acid; nitric acid] | reduce the color of the antibody composition |
| C[C@@H]1O[C@@H](Oc2c(-c3ccc(O)c(O)c3)oc3cc(O)cc(O)c3c2=O)[C@H](O)[C@H](O)[C@H]1O [quercitrin hydrate, 2-(3,4-dihydroxyphenyl)-5,7-dihydroxy-3-{[(2S,3R,4R,5R,6S)-3,4,5-trihydroxy-6-methyloxan-2-yl]oxy}-4H-chromen-4-one] | reduce the color of the antibody composition |
| O=C(O)CCCC[C@@H]1CCSS1 [lipoic acid, 5-[(3R)-1,2-dithiolan-3-yl]pentanoic acid] | reduce the color of the antibody composition |
| COc1ccc(O)c(C(C)(C)C)c1 [butylated hydroxyanisole, 2-tert-butyl-4-methoxyphenol] | reduce the color of the antibody composition |
| CC(S)C(=O)NCC(=O)O (stereo not drawn) [mercaptopropionyl glycine, 2-(2-sulfanylpropanamido)acetic acid] | increase the color of the antibody composition |
| C[C@]12CCC(=O)C=C1CC[C@@H]1[C@@H]2[C@@H](O)C[C@@]2(C)[C@H]1CC[C@]2(O)C(=O)CO [hydrocortisone, (1S,2R,10S,11S,14R,15S,17S)-14,17-dihydroxy-14-(2-hydroxyacetyl)-2,15-dimethyltetracyclo[8.7.0.0^{2,7}.0^{11,15}]heptadec-6-en-5-one, reference compound] | increase the color of the antibody composition |
| NCCC(=O)N[C@@H](Cc1cnc[nH]1)C(=O)O [carnosine, (2S)-2-(3-aminopropanamido)-3-(1H-imidazol-5-yl)propanoic acid] | reduce the color of the antibody composition |
| NCCS [cysteamine, 2-aminoethane-1-thiol] | increase the color of the antibody composition |
